This passage reports binding results from PMC7469483.

Chains of the proteins cited; added tags and fusions are not shown.
UniProt P13864: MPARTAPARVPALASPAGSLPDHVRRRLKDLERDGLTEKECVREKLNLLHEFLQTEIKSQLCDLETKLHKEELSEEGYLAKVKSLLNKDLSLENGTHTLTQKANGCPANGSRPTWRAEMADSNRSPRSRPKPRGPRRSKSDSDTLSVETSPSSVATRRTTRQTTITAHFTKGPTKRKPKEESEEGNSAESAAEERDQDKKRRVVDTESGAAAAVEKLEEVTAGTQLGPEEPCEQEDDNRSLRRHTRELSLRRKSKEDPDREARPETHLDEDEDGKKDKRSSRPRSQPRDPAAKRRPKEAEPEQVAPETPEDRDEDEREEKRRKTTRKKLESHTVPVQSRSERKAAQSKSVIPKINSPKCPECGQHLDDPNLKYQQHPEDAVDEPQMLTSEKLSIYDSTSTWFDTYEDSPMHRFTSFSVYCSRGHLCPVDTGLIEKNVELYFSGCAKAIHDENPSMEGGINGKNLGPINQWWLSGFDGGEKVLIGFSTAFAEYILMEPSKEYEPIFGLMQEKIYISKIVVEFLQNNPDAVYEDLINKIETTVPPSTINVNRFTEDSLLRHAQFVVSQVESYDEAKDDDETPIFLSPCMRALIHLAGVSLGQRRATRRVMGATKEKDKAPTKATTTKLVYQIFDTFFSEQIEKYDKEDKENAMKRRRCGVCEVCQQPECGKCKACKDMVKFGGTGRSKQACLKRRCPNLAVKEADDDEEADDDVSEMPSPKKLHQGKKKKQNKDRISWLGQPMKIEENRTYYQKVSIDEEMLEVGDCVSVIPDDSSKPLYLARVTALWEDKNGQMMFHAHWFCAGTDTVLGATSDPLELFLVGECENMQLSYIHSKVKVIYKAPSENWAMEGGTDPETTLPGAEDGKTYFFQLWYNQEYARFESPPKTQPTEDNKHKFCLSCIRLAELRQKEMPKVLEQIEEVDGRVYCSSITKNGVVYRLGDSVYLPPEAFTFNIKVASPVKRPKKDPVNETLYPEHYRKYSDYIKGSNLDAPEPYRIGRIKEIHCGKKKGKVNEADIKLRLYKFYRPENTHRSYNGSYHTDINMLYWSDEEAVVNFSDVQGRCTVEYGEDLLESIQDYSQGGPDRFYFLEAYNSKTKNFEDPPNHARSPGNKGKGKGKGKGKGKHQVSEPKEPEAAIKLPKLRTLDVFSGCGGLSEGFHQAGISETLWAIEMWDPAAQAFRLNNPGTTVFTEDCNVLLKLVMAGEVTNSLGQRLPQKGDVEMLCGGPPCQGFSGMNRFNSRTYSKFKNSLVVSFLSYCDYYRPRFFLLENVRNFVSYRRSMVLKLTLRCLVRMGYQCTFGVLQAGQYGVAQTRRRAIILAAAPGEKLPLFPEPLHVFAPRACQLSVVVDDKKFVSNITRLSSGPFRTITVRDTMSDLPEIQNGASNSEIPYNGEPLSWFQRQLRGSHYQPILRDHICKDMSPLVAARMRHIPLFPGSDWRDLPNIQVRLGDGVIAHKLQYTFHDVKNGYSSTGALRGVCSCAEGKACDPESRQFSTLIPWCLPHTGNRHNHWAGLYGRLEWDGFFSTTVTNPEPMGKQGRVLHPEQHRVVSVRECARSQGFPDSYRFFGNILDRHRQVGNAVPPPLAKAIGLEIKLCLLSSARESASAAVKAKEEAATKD

The experiment has as its target DNA methyltransferase 1 (DNMT1) (UniProt P13864). The experiment in a line: co-IP; Suv39h1 and Dnmt1 overexpressed in HEK293 cells; 1 mg lysate in modified RIPA buffer (50 mM Tris-HCl, 1 mM EDTA, 1% Nonidet P-40, 0.25% sodium deoxycholate, 150 mM NaCl) incubated with anti-DNMT1 antibody and protein A/G agarose beads at 4°C overnight; immunoblot with anti-SUV39H1.

Results are given in words; binding and its absence hold for the method and conditions named. In cells and extracts the contact can be indirect. Some binding calls cover weakened binding; strength is not graded here.

B1: SUV39H1 (suppressor of variegation 3-9 1) (enzyme, UniProt O54864 1-412)
chain: MAENLKGCSVCCKSSWNQLQDLCRLAKLSCPALGVSKKNLYDFEVEYLCDYKKIREQEYYLVKWRGYPDSENTWEPRQNLKCIRVLKQFHKDLERELVRRHRRSKPPRHLDPNLANYLVQKAKQRRALQRWEQELNAKRSHLGRITVENEVDLDGPPRSFVYINEYRVGEGITLNQVAVGCECQDCLLAPTGGCCPGASLHKFAYNDQGQVRLKAGQPIYECNSRCCCGYDCPNRVVQKGIRYDLCIFRTNDGRGWGVRTLEKIRKNSFVMEYVGEIITSEEAERRGQIYDRQGATYLFDLDYVEDVYTVDAAYYGNISHFVNHSCDPNLQVYNVFIDNLDERLPRIAFFATRTIWAGEELTFDYNMQVDPVDMESTRMDSNFGLAGLPGSPKKRVRIECKCGTTACRKYLF
As for B1, the binding entry is recorded as “binds”.
